The target of the assay is FLAG-tagged MRPS27 (mouse) (UniProt Q8BK72). The experiment in a line: co-IP; anti-FLAG M2 magnetic beads on lysates of co-transfected NIH-3T3 cells crosslinked with 2 mM dithiobis[succinimidyl propionate]; lysis in 10 mM Tris-HCl pH 7.5, 260 mM sucrose, 100 mM KCl, 20 mM MgCl2, 1% digitonin; elution with 3x FLAG peptide; blot with anti-GFP and anti-FLAG.

Sequences of proteins named here, by UniProt entry; tags and fusion partners are left off. Residues count along the entry.
UniProt Q8BK72, residues 18-415: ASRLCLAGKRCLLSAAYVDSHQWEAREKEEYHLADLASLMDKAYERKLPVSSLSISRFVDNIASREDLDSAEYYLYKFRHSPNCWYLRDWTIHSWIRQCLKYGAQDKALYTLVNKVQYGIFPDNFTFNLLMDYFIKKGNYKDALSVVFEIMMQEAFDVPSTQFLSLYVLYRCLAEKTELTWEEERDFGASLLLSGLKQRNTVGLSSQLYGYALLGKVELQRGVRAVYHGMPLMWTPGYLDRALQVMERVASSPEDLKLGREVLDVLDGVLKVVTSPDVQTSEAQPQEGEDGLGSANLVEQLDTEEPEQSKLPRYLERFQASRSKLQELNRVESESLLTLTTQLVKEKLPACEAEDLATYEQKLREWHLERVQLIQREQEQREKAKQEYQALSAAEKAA

This note sets out measurements from publication PMC4915168.

These are yes or no findings as the source states them, for the method shown. In cells and extracts the contact can be indirect. Some binding calls cover weakened binding; strength is not graded here.

For the substance “GFP-tagged MRPL44 (from UniProt Q9CY73 31-333)”, the binding entry was “binds”.
